Publication PMC1790702, “Non-Metabolic Membrane Tubulation and Permeability Induced by Bioactive Peptides” (PLoS ONE, 2007)

Experiment: Small angle X-ray scattering of multilamellar vesicles, electron density profiles
Type: physicochemical
Conditions: PC/PG (9/1) MLVs, P/L 1/20 (w/w), 20°C
Description: Briefly, samples for SAXS examination were prepared by dissolving dry lipids in chloroform/methanol (2/1, vol/vol) and mixing to obtain the indicated proportions. The solvent was subsequently evaporated under a stream of oxygen-free dry nitrogen at 45°C and traces of solvent removed by a storage under high vacuum for 2 days. In order to obtain the Multiple Lamellar Vesicles (MLVs) the dry lipids were hydrated with an equal weight of buffer (5 mM HEPES pH 7.4). The aqueous lipid dispersion was thoroughly stirred to obtain a homogeneous dispersion, sealed under argon and kept until examination at 4°C. For X-ray measurements, lipid samples (∼20 µl) were deposited between two thin mica windows and mounted on a programmable thermal stage (Linkam, UK). The temperature was monitored by a thermocouple (Quad Service, Poissy, France) inserted directly into the lipid dispersion. Samples were exposed for 30 seconds to the beam (1.5 Å wavelength). The SAXS quadrant detector response was corrected for the uneven channel response using a static radioactive […] and S was calibrated for d-spacing using hydrated rat tail collagen. Information on the setup, calibration, and facilities are available on the station web site (http://www.srs.dl.ac.uk/ncd/station82/description.html).
The electron density profiles of lipid bilayers were obtained by Fourier synthesis of x-ray diffraction patterns. […]

Row | Substance | Effect on lamellar phase organisation (Ld1/Ld2 heterogeneity, non lamellar phase)
1 | RPKPQQFFGLM-NH2 [SP, Substance P, neuromodulator, primary amphipathic peptide, free N-terminal amino group, reference compound] | weak diffraction corresponding possibly to a non lamellar phase
2 | RRRRRRRRR-NH2 [R9, Polyarginine, cell-penetrating peptide, nine arginines, free N-terminal amino group, reference compound] | inhibited the membrane heterogeneity in favour of a unique liquid disordered phase
